Among all 400,000 compounds or so, about 5,500 (1.4%) were called active. The shares of active, inactive and inconclusive entries below differ from those in the screen. Calls come from the whole dose curve; as a rule, active = well fitted cell-killing curve with a large enough effect; inconclusive = small, poorly fitted or top-dose-only effect, or effect the other way; inactive = flat fitted curve, though single readings scatter. Potencies beside an inconclusive call are fits to weak or partial responses and may not hold up.
experiment: qHTS assay for MDR1-selective chemotherapeutics: Primary screen using the parental adenocarcinoma cell KB-3-1; conditions: KB-3-1 viability, CellTiter-Glo ATP luminescence, 72 h; activity change, negative = cytotoxic: at 46.1 µM (top of the series); note: nearly all actives have a fitted effect of over 60% in size
Method in brief: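 Cytotoxicity measured as CellTiter-Glo luminescence after 72 h at 37 C. Compound titrations were pinned onto drug-naive KB-3-1 parental adenocarcinoma cells grown in DMEM with 10% FBS, and normalized data fitted to concentration-response curves.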
% is set by controls: 0 for no effect and ±100 for the full control effect; potency is the fitted concentration of half-maximal effect.

| SMILES | Potency | activity change, negative = cytotoxic |
| --- | --- | --- |
| Cc1ccccc1C(=O)Nc1ccc(C(=O)OCc2cc(=O)n3nc(C4CC4)sc3n2)cc1 | inconclusive: 10.3 µM [cytotoxic, partial curve] | – |
| COc1nnc(-c2ccc(N3CCCCC3)c(NC(=O)C3CCCCC3)c2)c2ccccc12 | inconclusive: 29.1 µM [cytotoxic, single point] | – |
| COc1cc2c(C(=O)N3CCN(c4ccccc4)CC3)c(C)oc2cc1Br | inconclusive: 29.1 µM [cytotoxic, single point] | – |
| O=C(Nc1cccc(C(F)(F)F)c1)N(Cc1ccc(Cl)cc1)CC(O)C(F)(F)F (stereo unspecified) | inconclusive: 18.4 µM [cytotoxic, single point] | – |
| CC(NC1=CC(=O)c2cccnc2C1=O)C(O)c1ccccc1 (stereo unspecified) | active: 8.2 µM | – |
| CCc1c(-c2cccc(OC)c2)ncn1Cc1cccc(-c2ccccc2)c1 | inconclusive: 16.4 µM [cytotoxic, partial curve] | – |
| COc1ccccc1NS(=O)(=O)c1ccc(C(=O)N2CCCCCC2)cc1 | inconclusive: 9.2 µM [cytotoxic, partial curve, poor fit] | – |
| COc1ccc(-c2cc(C(F)(F)F)n3nc(C(=O)Nc4sc5c(c4C#N)CCC(C)C5)cc3n2)cc1OC (stereo unspecified) | inconclusive: 25.9 µM [rising, single point] | – |
| CC(=O)c1ccc(N2CCN(S(=O)(=O)c3ccc4[nH]c5c(c4c3)CCCCC5)CC2)cc1 | inconclusive: 18.4 µM [cytotoxic, single point] | – |
| CNc1oc(-c2ccc(Cl)cc2)nc1P(=O)(c1ccccc1)c1ccccc1 | inconclusive: 16.4 µM [cytotoxic, single point] | – |
| CC1(C(=O)NCc2cccc3ccccc23)CCN1Cc1ccc2ccccc2c1 (stereo unspecified) | inconclusive: 25.9 µM [cytotoxic, partial curve, poor fit] | – |
| Cn1c(NCc2ccccc2)nc2cc(-c3cccc(C(F)(F)F)c3)sc2c1=O | inconclusive: 29.1 µM [cytotoxic, single point] | – |
| COc1ccc(C(=O)N/C(N)=N/c2nc3ccccc3o2)cc1 | inconclusive: 29.1 µM [cytotoxic, single point] | – |
| O=C(COc1ccc(S(=O)(=O)N2CCOCC2)cc1)Nc1ccc(Cl)c(C(F)(F)F)c1 | inconclusive: 25.9 µM [cytotoxic, single point] | – |
| COc1ccccc1C(NC(C)=O)c1cc(Cl)c2cccnc2c1O (stereo unspecified) | inconclusive: 0.517 µM [cytotoxic, full curve, poor fit] | – |
| CCOC(=O)c1c(C)[nH]c(C=O)c1Cc1cccc(Cl)c1 | active: 18.4 µM | – |
| CC1COCC(C)N1C1=C(Cl)C(=O)c2ccccc2C1=O (stereo unspecified) | inconclusive: 20.6 µM [cytotoxic, single point] | – |
| CC(NC(=O)c1ccc([N+](=O)[O-])o1)C12CC3CC(CC(C3)C1)C2 (stereo unspecified) | inconclusive: 29.1 µM [cytotoxic, single point] | – |
| COC(=O)c1cccc(NC(=O)CSc2nnc(C3CC3)n2C)c1 | – | inactive: 13.5% |
| Cc1noc(C)c1CSc1nc2ccccc2c(=O)n1-c1ccc(Cl)cc1 | inconclusive: 29.1 µM [cytotoxic, single point] | – |
| O=C(c1ccc(F)cc1)N1CCN(c2cc(N3CCCCC3)c(F)cc2[N+](=O)[O-])CC1 | – | inactive: -19.6% |
| COc1ccccc1Cc1c(-c2ccco2)nc2cc(C)c(Br)c(C)n12 | inconclusive: 29.1 µM [cytotoxic, single point] | – |

Reformatted tab-delimited: two of the compounds above.
SMILES	Potency	activity change, negative = cytotoxic
O=C(COc1ccc(S(=O)(=O)N2CCOCC2)cc1)Nc1ccc(Cl)c(C(F)(F)F)c1	inconclusive: 25.9 µM [cytotoxic, single point]	–
COc1ccccc1C(NC(C)=O)c1cc(Cl)c2cccnc2c1O (stereo unspecified)	inconclusive: 0.517 µM [cytotoxic, full curve, poor fit]	–

Going on with the list.

| SMILES | Potency | activity change, negative = cytotoxic |
| --- | --- | --- |
| Cc1cc(C)c2sc(N(CCN(C)C)C(=O)CCS(=O)(=O)c3ccccc3)nc2c1 | inconclusive: 29.1 µM [cytotoxic, single point] | – |
| c1cnc(N2CCN(c3cnccn3)CC2)nc1 | – | inactive: 11.7% |
| O=C(CCl)N=c1sccn1Cc1ccccc1Cl | inconclusive: 29.1 µM [cytotoxic, single point] | – |
| CCOC(=O)c1csc(-c2ccc(OC)c(OC)c2)n1 | inconclusive: 8.2 µM [rising, partial curve] | – |
| C=CC[n+]1c(-c2ccc(OC)c(OC)c2)csc1NNC(=O)Nc1ccccc1 | inconclusive: 23.1 µM [cytotoxic, single point] | – |
| O=C(N/N=C/c1ccc(O)cc1)Nc1cccc2nsnc12 | inconclusive: 3.66 µM [rising, full curve] | – |
| Clc1cccc(N=C2NN=C(c3ccc4c(c3)OCCO4)CS2)c1 | inconclusive: 23.1 µM [cytotoxic, single point] | – |
| COc1cccc(Cn2c(C(C)n3c(C)nc4ccccc43)nc3ccccc32)c1 (stereo unspecified) | inconclusive: 16.4 µM [cytotoxic, single point] | – |
| CC(C)(C)c1nc(Sc2ncccc2[N+](=O)[O-])n[nH]1 | inconclusive: 0.0326 µM [rising, full curve, poor fit] | – |
| COc1nc(/C(N)=N/O)nc(N2CCCCC2)n1 | inconclusive: 25.9 µM [rising, single point] | – |
| Cc1ccc(NC(=O)Cn2cc(S(=O)(=O)N3CCCC3)c(S(=O)(=O)N3CCCC3)c2)c(C)c1 | inconclusive: 29.1 µM [rising, single point] | – |
| CCN(CC)c1ccc(NC(=O)c2ccc(=O)[nH]c2)cc1S(=O)(=O)Nc1ccccc1OC | active: 10.3 µM | – |
| COc1cc(Cn2c3ccc(NC(=S)NCc4ccc(C)cc4)cc3c(=O)n2C)ccc1F | inconclusive: 29.1 µM [cytotoxic, single point] | – |
| CC(C)c1ccc(C2C3=C(COC3=O)Nc3cc4c(cc32)OCO4)cc1 (stereo unspecified) | active: 0.731 µM | – |
| CCOc1ccc(-c2nc(CSCC(=O)NC3CCN(Cc4ccccc4)CC3)c(C)o2)cc1 | – | inactive: -0.0905% |
| CC(=O)Nc1c(Cl)cnn(-c2ccccc2)c1=O | – | inactive: 7.07% |
| COc1cc(/C=N/N=C(\N)c2nonc2N)ccc1O | inconclusive: 14.6 µM [rising, partial curve, poor fit] | – |
| Cc1ccccc1C1c2[nH]c3ccccc3c2CCN1Cc1cccn1-c1ncccn1 (stereo unspecified) | inconclusive: 29.1 µM [cytotoxic, single point] | – |
| O=C(NC1CCCCCC1)C1CCC(=O)N(Cc2ccccc2F)C1 (stereo unspecified) | – | inactive: 14.3% |
| CN(C)S(=O)(=O)c1ccc(N2CCCC2)c(C(=O)N2CCN(S(=O)(=O)c3ccc(F)c(F)c3)CC2)c1 | inconclusive: 29.1 µM [cytotoxic, partial curve, poor fit] | – |
| CC1CCN(Cc2c(C(=O)N/N=C/c3cc(Cl)ccc3O)nnn2-c2nonc2N)CC1 | active: 2.06 µM | – |
| N#Cc1ccc(NC(=O)c2cc(-c3cccs3)on2)cc1 | – | inconclusive: 12.1% |

Reformatted with tabs: entries from further up.
SMILES	Potency	activity change, negative = cytotoxic
O=C(CCl)N=c1sccn1Cc1ccccc1Cl	inconclusive: 29.1 µM [cytotoxic, single point]	–
CCOC(=O)c1csc(-c2ccc(OC)c(OC)c2)n1	inconclusive: 8.2 µM [rising, partial curve]	–
C=CC[n+]1c(-c2ccc(OC)c(OC)c2)csc1NNC(=O)Nc1ccccc1	inconclusive: 23.1 µM [cytotoxic, single point]	–
O=C(N/N=C/c1ccc(O)cc1)Nc1cccc2nsnc12	inconclusive: 3.66 µM [rising, full curve]	–
Clc1cccc(N=C2NN=C(c3ccc4c(c3)OCCO4)CS2)c1	inconclusive: 23.1 µM [cytotoxic, single point]	–
COc1cccc(Cn2c(C(C)n3c(C)nc4ccccc43)nc3ccccc32)c1 (stereo unspecified)	inconclusive: 16.4 µM [cytotoxic, single point]	–
CC(C)(C)c1nc(Sc2ncccc2[N+](=O)[O-])n[nH]1	inconclusive: 0.0326 µM [rising, full curve, poor fit]	–
COc1nc(/C(N)=N/O)nc(N2CCCCC2)n1	inconclusive: 25.9 µM [rising, single point]	–
Cc1ccc(NC(=O)Cn2cc(S(=O)(=O)N3CCCC3)c(S(=O)(=O)N3CCCC3)c2)c(C)c1	inconclusive: 29.1 µM [rising, single point]	–
CCN(CC)c1ccc(NC(=O)c2ccc(=O)[nH]c2)cc1S(=O)(=O)Nc1ccccc1OC	active: 10.3 µM	–
COc1cc(Cn2c3ccc(NC(=S)NCc4ccc(C)cc4)cc3c(=O)n2C)ccc1F	inconclusive: 29.1 µM [cytotoxic, single point]	–
CC(C)c1ccc(C2C3=C(COC3=O)Nc3cc4c(cc32)OCO4)cc1 (stereo unspecified)	active: 0.731 µM	–
CCOc1ccc(-c2nc(CSCC(=O)NC3CCN(Cc4ccccc4)CC3)c(C)o2)cc1	–	inactive: -0.0905%
CC(=O)Nc1c(Cl)cnn(-c2ccccc2)c1=O	–	inactive: 7.07%
COc1cc(/C=N/N=C(\N)c2nonc2N)ccc1O	inconclusive: 14.6 µM [rising, partial curve, poor fit]	–
Cc1ccccc1C1c2[nH]c3ccccc3c2CCN1Cc1cccn1-c1ncccn1 (stereo unspecified)	inconclusive: 29.1 µM [cytotoxic, single point]	–

Following part:

| SMILES | Potency | activity change, negative = cytotoxic |
| --- | --- | --- |
| CS(=O)(=O)c1ccc(C(=O)OCC(=O)Nc2ccc(OC(F)(F)F)cc2)cc1[N+](=O)[O-] | inconclusive: 29.1 µM [cytotoxic, partial curve, poor fit] | – |
| CC(=O)c1ccc(N2CCN(c3ccc(C(F)(F)F)cn3)CC2)cc1 | inconclusive: 20.6 µM [cytotoxic, single point] | – |
| Cc1cc(C)c(C(=O)OCCNC(=O)c2cccnc2)cc1C | inconclusive: 29.1 µM [cytotoxic, single point] | – |
| COc1cccc(CNC(=O)CN2C(=O)CCn3nc(-c4cn(C)c5ccccc45)cc32)c1OC | – | inactive: -1.83% |
| CN(Cc1cn(-c2ccccc2)nc1-c1cc2ccccc2o1)C(=O)CCC(=O)O | – | inactive: 0% |
| COc1ccc(C2=NN(C(=O)c3cccs3)C(c3ccccc3OC)C2)cc1OC (stereo unspecified) | inconclusive: 29.1 µM [cytotoxic, single point] | – |
| Cn1c(=O)[nH]c(=O)c2c1nc(Br)n2Cc1cccc(Br)c1 | inconclusive: 20.6 µM [cytotoxic, single point] | – |
| CCc1ccc(N2C(=O)CSC23C(=O)N(Cc2cccc(F)c2)c2ccccc23)cc1 (stereo unspecified) | inconclusive: 29.1 µM [cytotoxic, single point] | – |
| COc1cc2nc(N3CCNCC3)nc(N)c2cc1OC | inconclusive: 25.1 µM [cytotoxic, single point] | – |
| C[C@@H](C(=O)NCc1ccccc1)[C@H]1C[C@]1(C)[C@H](NC(=O)OCc1ccccc1)c1ccccc1 | inconclusive: 25.9 µM [cytotoxic, partial curve, poor fit] | – |
| Cc1onc(-c2c(F)cccc2Cl)c1C(=O)NC1CCCCCC1 | – | inactive: -4.23% |
| COc1ccc(NC(=O)Cn2ncc3c([nH]c4ccccc43)c2=O)cc1Cl | – | inactive: 9.79% |
| Cc1csc(NC(=O)CSc2nncn2C)n1 | – | inactive: -1.83% |
| COCCNC(=O)CCn1nc(-c2ccc(C)cc2)c2ccccc2c1=O | – | inactive: 6.93% |
| CCN(CC)S(=O)(=O)c1ccc(N2CC(C(=O)N3Cc4ccccc4CC3C(N)=O)CC2=O)cc1 (stereo unspecified) | – | inactive: -0.991% |
| COc1ccc(OC)c(C2NC(=O)N(C)C(C)=C2C(=O)OCc2ccccc2)c1 (stereo unspecified) | – | inactive: -23.4% |
| Cc1ccc(-c2[nH]ncc2/C=N/n2c(COc3ccccc3C)nc3ccccc3c2=O)cc1 | inconclusive: 29.1 µM [cytotoxic, single point] | – |
| COc1ccc2c(C(=O)CCl)c[nH]c2c1 | inconclusive: 18.4 µM [cytotoxic, single point] | – |
| Oc1cccc(/C=N/NC(=S)NCCN2CCOCC2)c1O | inconclusive: 18.4 µM [cytotoxic, single point] | – |
| O=C(N/N=C1/C(=O)c2cccc3cccc1c23)c1ccc(Cl)cc1 | inconclusive: 20.6 µM [cytotoxic, single point] | – |
| Cc1ccccc1Cn1c(C)c(C(=O)NCc2cccc(Cl)c2)sc1=O | inconclusive: 20.6 µM [cytotoxic, single point] | – |
| O=C(Nc1ccc(F)cc1)c1cccc(N2C(=O)C3C4CCC(C4)C3C2=O)c1 (stereo unspecified) | inconclusive: 29.1 µM [cytotoxic, single point] | – |

— PubChem BioAssay AID1347075 (National Center for Advancing Translational Sciences (NCATS), 2019)
